# The list shows a part of the results. For some of these results: The source does not settle which construct or isoform was used.
# Legend:
# Assay in all cases: protein microarray (ProtoArray v5.0), streptavidin-Alexa Fluor 647
# Details in all cases: 3'-biotin; 20 mM Tris (pH 7.5), 5 mM MgCl2, 100 mM KCl, 0.1% Tween-20, A/T-rich and random oligonucleotide blockers; temperature not stated; high values mean tight binding
# SMUG1 (human) = test system: SMUG1 (human)
# SNAPC5 = molecular target: T1, SNAPC5 (UniProt O75971)
# T1 sequence: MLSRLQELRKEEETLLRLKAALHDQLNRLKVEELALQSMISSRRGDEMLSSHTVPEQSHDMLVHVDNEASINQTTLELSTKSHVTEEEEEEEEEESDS
# SNCB = SNCB (UniProt Q16143)
# SNFT = molecular target: T2, SNFT (UniProt Q9NR55)
# T2 sequence: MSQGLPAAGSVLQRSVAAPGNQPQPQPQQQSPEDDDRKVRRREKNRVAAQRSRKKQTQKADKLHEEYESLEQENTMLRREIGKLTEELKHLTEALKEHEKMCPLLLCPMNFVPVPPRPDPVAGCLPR
# SNRPB = SNRPB (UniProt P14678)
# SOD1 (human) = test system: SOD1 (human)
# SP100 (human) = test system: SP100 (human)
# SPAG16 (human) = test system: SPAG16 (human)
# SPAG8 (human) = test system: SPAG8 (human)
# SPAG9 (human) = test system: SPAG9 (human)
sequence,measurement,setting,value
GGTGACAGGGGTATGGGGAGGGG [G4-2 biotinylated (Ct1)],binding signal,SMUG1 (human),-0.36 z-score
same,binding signal,SNAPC5,-0.373 z-score
same,binding signal,SNCB,-0.403 z-score
same,binding signal,SNFT,6 z-score
same,binding signal,SNRPB,3.14 z-score
same,binding signal,SOD1 (human),-0.378 z-score
same,binding signal,SP100 (human),-0.377 z-score
same,binding signal,SPAG16 (human),-0.382 z-score
same,binding signal,SPAG8 (human),-0.368 z-score
same,binding signal,SPAG9 (human),-0.371 z-score

# A different layout for some results above.
sequence	measurement	setting	value
GGTGACAGGGGTATGGGGAGGGG [G4-2 biotinylated (Ct1)]	binding signal	SP100 (human)	-0.377 z-score
same	binding signal	SPAG16 (human)	-0.382 z-score

# Source: publication PMC5996148
